Laboratory results taken from patent publication US6436654 (PHARMACIA AND UPJOHN, dated 2002).

Chains of the proteins cited; added tags and fusions are not shown.
UniProt Q16665, whole entry: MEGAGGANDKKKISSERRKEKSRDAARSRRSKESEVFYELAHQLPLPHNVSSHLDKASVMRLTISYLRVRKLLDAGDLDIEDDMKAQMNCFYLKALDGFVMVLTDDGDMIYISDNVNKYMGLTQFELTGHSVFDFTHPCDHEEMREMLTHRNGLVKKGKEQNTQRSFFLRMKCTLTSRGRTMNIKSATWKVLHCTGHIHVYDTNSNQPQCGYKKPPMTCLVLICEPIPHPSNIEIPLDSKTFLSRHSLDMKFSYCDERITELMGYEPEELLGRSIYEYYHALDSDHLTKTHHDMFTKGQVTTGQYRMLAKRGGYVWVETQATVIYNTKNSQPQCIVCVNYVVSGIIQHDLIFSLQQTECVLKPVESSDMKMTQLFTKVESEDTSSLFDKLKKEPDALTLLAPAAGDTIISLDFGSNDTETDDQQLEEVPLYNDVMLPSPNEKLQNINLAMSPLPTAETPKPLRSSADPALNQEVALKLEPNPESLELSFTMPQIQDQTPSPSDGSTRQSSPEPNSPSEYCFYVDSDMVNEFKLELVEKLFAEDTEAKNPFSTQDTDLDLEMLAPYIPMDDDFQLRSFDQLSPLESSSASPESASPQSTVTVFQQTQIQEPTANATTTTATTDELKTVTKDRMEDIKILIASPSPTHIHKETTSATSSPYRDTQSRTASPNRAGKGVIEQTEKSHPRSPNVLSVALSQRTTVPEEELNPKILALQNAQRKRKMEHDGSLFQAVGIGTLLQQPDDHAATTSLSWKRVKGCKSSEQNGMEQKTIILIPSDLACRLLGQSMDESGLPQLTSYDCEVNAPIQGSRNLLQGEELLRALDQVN

How the values were obtained:
Experiment in all cases: cell-based or functional assay
human HIF-1α = human HIF-1α (human, UniProt Q16665 1-826)
GAL4/HIF 531-584 = GAL4/HIF 531-584 (human, UniProt P04386 1-147 (Saccharomyces cerevisiae entry), [35S]methionine-labeled (in vitro translated) in the pull-down assay)
GAL4/HIF 776-826 = GAL4/HIF 776-826 (human, UniProt P04386 1-147 (Saccharomyces cerevisiae entry), [35S]methionine-labeled (in vitro translated) in the pull-down assay)

B1: SRC-1 (full-length) (other, human, UniProt Q15788 1-1441, looked up)
chain: MSGLGDSSSDPANPDSHKRKGSPCDTLASSTEKRRREQENKYLEELAELLSANISDIDSLSVKPDKCKILKKTVDQIQLMKRMEQEKSTTDDDVQKSDISSSSQGVIEKESLGPLLLEALDGFFFVVNCEGRIVFVSENVTSYLGYNQEELMNTSVYSILHVGDHAEFVKNLLPKSLVNGVPWPQEATRRNSHTFNCRMLIHPPDEPGTENQEACQRYEVMQCFTVSQPKSIQEDGEDFQSCLICIARRLPRPPAITGVESFMTKQDTTGKIISIDTSSLRAAGRTGWEDLVRKCIYAFFQPQGREPSYARQLFQEVMTRGTASSPSYRFILNDGTMLSAHTKCKLCYPQSPDMQPFIMGIHIIDREHSGLSPQDDTNSGMSIPRVNPSVNPSISPAHGVARSSTLPPSNSNMVSTRINRQQSSDLHSSSHSNSSNSQGSFGCSPGSQIVANVALNQGQASSQSSNPSLNLNNSPMEGTGISLAQFMSPRRQVTSGLATRPRMPNNSFPPNISTLSSPVGMTSSACNNNNRSYSNIPVTSLQGMNEGPNNSVGFSASSPVLRQMSSQNSPSRLNIQPAKAESKDNKEIASILNEMIQSDNSSSDGKPLDSGLLHNNDRLSDGDSKYSQTSHKLVQLLTTTAEQQLRHADIDTSCKDVLSCTGTSNSASANSSGGSCPSSHSSLTERHKILHRLLQEGSPSDITTLSVEPDKKDSASTSVSVTGQVQGNSSIKLELDASKKKESKDHQLLRYLLDKDEKDLRSTPNLSLDDVKVKVEKKEQMDPCNTNPTPMTKPTPEEIKLEAQSQFTADLDQFDQLLPTLEKAAQLPGLCETDRMDGAVTSVTIKSEILPASLQSATARPTSRLNRLPELELEAIDNQFGQPGTGDQIPWTNNTVTAINQSKSEDQCISSQLDELLCPPTTVEGRNDEKALLEQLVSFLSGKDETELAELDRALGIDKLVQGGGLDVLSERFPPQQATPPLIMEERPNLYSQPYSSPSPTANLPSPFQGMVRQKPSLGTMPVQVTPPRGAFSPGMGMQPRQTLNRPPAAPNQLRLQLQQRLQGQQQLIHQNRQAILNQFAATAPVGINMRSGMQQQITPQPPLNAQMLAQRQRELYSQQHRQRQLIQQQRAMLMRQQSFGNNLPPSSGLPVQMGNPRLPQGAPQQFPYPPNYGTNPGTPPASTSPFSQLAANPEASLANRNSMVSRGMTGNIGGQFGTGINPQMQQNVFQYPGAGMVPQGEANFAPSLSPGSSMVPMPIPPPQSSLLQQTPPASGYQSPDMKAWQQGAIGNNNVFSQAVQNQPTPAQPGVYNNMSITVSMAGGNTNVQNMNPMMAQMQMSSLQMPGMNTVCPEQINDPALRHTGLYCNQLSSTDLLKTEADGTQQVQQVQVFADVQCTVNLVGGDPYLNQPGPLGTQKPTSGPQTPQAQQKSLLQQLLTE
modifications: [35S]methionine-labeled (in vitro translated) in the GST precipitation assay
HRE-dependent reporter gene activity in COS7 cells, normoxia (human HIF-1α): ~3 fold | GAL4-responsive reporter gene activity in COS7 cells, hypoxia (GAL4/HIF 531-584): 1.5 fold | GAL4-responsive reporter gene activity in COS7 cells (GAL4/HIF 776-826): 17 fold
